From patent US20170029366A1, “INHIBITORS OF HISTONE LYSINE SPECIFIC DEMETHYLASE (LSD1) AND HISTONE DEACETYLASES (HDACS)” (THE JOHNS HOPKINS UNIVERSITY, priority 2014, published 2017)
Some entries share one result that the patent states for a list of compounds. At least one structure is not confirmed: it was looked up by name or label, or the drawing left a doubt.

Tested on: LNCaP cells
Assay: Drug combination experiments with bizine ([3H] thymidine, Combination Index)
Format: cell-based
Settings: binary combination with bizine, 48 h, 3H-thymidine incorporation, all ratios examined

SMILES: CC(/C=C/C(=O)NO)=C\[C@@H](C)C(=O)c1ccc(N(C)C)cc1 [TSA]
- Combination Index (CI): > 1
